From patent publication US20110311555A1
These are yes or no findings as the source states them, for the method shown. For some of these results: In cells and extracts the contact can be indirect. Some entries that bind do so weakly or less than the wild type. Values belong to the substance of their own block, whether it stands above or below them.

Chains of the proteins cited; added tags and fusions are not shown. Lines headed by an entry give the natural chain unless they say otherwise; changes in a name come on top. Residues count along the entry.
UniProt Q09472: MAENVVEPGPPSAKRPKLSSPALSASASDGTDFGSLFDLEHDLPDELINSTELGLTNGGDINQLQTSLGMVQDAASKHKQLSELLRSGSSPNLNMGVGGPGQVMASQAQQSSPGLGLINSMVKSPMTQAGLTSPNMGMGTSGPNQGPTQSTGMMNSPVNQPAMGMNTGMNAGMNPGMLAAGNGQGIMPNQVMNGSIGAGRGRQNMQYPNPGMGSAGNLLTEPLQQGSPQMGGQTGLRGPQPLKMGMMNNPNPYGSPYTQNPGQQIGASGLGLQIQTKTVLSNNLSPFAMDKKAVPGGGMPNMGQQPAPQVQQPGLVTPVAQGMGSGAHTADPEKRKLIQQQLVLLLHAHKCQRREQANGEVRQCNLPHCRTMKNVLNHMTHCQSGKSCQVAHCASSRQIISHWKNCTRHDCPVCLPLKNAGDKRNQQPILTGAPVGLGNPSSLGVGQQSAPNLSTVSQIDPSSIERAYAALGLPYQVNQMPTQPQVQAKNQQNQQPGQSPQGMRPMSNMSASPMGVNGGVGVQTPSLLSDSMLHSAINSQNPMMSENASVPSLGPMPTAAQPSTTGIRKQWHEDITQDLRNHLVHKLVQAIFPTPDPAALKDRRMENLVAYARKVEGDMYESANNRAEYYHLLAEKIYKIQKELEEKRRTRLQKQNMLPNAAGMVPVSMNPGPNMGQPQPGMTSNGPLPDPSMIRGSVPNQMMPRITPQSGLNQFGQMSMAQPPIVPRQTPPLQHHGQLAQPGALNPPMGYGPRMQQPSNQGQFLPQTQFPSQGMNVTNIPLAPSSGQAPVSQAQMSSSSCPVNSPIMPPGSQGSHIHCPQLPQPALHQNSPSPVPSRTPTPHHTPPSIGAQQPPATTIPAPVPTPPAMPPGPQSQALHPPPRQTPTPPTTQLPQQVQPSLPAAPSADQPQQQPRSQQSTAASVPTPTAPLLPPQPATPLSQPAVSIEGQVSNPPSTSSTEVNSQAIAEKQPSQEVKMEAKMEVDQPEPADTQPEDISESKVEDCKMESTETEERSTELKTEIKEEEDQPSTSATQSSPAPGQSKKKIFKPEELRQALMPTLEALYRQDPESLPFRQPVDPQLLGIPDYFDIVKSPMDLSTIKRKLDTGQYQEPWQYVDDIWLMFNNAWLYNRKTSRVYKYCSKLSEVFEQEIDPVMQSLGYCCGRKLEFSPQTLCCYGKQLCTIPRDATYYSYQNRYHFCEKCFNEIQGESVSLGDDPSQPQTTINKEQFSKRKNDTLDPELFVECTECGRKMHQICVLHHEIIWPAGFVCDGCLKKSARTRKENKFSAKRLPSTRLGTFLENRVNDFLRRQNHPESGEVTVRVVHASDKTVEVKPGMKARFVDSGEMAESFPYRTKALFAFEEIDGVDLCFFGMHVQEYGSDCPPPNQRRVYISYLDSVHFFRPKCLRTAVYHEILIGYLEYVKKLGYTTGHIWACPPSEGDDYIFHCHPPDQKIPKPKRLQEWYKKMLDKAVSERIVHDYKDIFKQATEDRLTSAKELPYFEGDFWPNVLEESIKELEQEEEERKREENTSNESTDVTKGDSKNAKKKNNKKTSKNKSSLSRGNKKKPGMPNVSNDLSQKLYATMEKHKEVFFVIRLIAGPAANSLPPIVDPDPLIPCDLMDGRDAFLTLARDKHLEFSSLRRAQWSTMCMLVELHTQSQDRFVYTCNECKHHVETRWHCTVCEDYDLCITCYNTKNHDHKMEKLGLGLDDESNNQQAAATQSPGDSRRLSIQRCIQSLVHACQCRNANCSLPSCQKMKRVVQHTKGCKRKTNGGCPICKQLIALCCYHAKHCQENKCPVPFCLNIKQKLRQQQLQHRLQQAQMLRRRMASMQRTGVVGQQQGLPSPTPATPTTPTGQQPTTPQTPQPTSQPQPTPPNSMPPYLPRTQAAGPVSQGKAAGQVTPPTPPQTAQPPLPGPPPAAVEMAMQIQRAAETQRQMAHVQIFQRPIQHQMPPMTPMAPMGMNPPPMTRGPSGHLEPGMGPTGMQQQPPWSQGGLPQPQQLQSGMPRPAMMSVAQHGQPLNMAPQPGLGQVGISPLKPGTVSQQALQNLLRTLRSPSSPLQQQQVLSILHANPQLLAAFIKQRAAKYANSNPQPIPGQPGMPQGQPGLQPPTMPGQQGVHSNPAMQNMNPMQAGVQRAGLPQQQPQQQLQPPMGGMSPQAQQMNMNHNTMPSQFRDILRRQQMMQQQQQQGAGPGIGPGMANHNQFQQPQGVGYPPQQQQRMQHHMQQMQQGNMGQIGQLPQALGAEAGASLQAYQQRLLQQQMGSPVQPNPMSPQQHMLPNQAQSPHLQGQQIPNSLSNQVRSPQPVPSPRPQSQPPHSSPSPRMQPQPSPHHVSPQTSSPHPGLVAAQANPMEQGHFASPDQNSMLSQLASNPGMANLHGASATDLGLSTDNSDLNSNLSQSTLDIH
endogenous p300 of Daudi Burkitt lymphoma cells: residues 2-2414 of Q09472
UniProt P05412: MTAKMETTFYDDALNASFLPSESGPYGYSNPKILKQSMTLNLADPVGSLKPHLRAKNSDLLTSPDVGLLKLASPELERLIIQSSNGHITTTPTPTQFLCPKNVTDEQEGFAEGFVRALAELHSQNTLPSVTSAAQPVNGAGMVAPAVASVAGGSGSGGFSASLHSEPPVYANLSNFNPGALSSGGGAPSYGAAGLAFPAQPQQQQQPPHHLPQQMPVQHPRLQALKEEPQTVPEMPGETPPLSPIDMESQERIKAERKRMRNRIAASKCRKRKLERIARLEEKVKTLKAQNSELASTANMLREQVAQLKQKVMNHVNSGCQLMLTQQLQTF
UniProt P01100: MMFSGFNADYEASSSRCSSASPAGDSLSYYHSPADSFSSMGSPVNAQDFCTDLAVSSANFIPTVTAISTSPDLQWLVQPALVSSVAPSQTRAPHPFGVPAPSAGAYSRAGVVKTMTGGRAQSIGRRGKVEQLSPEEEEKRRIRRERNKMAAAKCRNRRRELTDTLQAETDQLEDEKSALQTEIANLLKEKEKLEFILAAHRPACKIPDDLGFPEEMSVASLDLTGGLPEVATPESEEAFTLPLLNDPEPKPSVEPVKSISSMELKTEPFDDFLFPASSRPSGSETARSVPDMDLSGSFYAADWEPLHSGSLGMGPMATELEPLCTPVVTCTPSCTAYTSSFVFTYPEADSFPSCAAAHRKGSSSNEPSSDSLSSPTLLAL
UniProt P56279: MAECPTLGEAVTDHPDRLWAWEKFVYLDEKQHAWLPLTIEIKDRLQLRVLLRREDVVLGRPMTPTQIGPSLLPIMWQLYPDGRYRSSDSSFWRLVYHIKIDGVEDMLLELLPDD

Assays:
[1] = target: p300-HA (construct bought from Upstate Biotechnology) (UniProt Q09472); experiment: co-immunoprecipitation (data not shown)
[2] = target: endogenous c-Jun (293 cells and Daudi cells, induced with PMA and ionomycin) (UniProt P05412); experiment: co-immunoprecipitation of endogenous proteins, Daudi cells treated with PMA and ionomycin (FIG. 2H)
[3] = target: endogenous p300 of Daudi Burkitt lymphoma cells (UniProt Q09472); experiment: co-immunoprecipitation of endogenous proteins, Daudi cells (FIG. 1C lower, legend)
[4] = target: endogenous p300 of Daudi Burkitt lymphoma cells (UniProt Q09472); experiment: co-immunoprecipitation of endogenous proteins, Daudi cells (FIG. 1C lower)
[5] = target: endogenous c-Jun (293 cells and Daudi cells, induced with PMA and ionomycin) (UniProt P05412); experiment: co-immunoprecipitation, 293 cells transfected with myc-Tcl1, treated with PMA and ionomycin (FIG. 2G)
[6] = target: c-Fos-V5 (construct bought from Invitrogen) (UniProt P01100); experiment: co-immunoprecipitation, 293 cells cotransfected with c-Fos-V5 and CMV5-Tcl1 WT (FIG. 2C)
[7] = target: c-Fos-V5 (construct bought from Invitrogen) (UniProt P01100); experiment: co-immunoprecipitation, 293 cells cotransfected with c-Fos-V5 and CMV5-Tcl1 T38I (FIG. 2C)
[8] = target: p300-HA (construct bought from Upstate Biotechnology) (UniProt Q09472); experiment: co-immunoprecipitation, 293 cells cotransfected with p300-HA and Omni-Tcl1 (FIG. 1C upper)
[9] = target: c-Fos-V5 (construct bought from Invitrogen) (UniProt P01100); experiment: immunofluorescence colocalization, 293 cells cotransfected with c-Jun-HA, c-Fos-V5 and Omni-Tcl1 (FIG. 3; yellow = c-Fos and Tcl1)
[10] = target: p300-HA (construct bought from Upstate Biotechnology) (UniProt Q09472); experiment: co-immunoprecipitation, 293 cells cotransfected with p300-HA and Omni-Tcl1 (FIG. 1C upper, legend)
[11] = target: c-Fos-V5 (construct bought from Invitrogen) (UniProt P01100); experiment: co-immunoprecipitation, 293 cells cotransfected with myc-Tcl1 T38I and c-Fos-V5 (FIG. 2D)
[12] = target: T1, JunB (expression construct in pCMV-SPORT6 vector, ATCC) (UniProt P17275); experiment: co-immunoprecipitation, 293 cells cotransfected with myc-Tcl1 T38I and JunB (FIG. 2F)
T1 sequence (looked up): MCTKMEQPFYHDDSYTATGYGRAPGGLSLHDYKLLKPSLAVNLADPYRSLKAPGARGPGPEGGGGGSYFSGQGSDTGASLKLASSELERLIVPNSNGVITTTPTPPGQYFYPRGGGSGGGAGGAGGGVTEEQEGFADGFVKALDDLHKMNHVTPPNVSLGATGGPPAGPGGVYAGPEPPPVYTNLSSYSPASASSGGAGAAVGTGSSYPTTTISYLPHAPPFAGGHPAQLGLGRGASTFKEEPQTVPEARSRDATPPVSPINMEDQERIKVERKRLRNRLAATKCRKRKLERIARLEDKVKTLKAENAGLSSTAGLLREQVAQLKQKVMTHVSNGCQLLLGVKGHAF

[13] = target: c-Jun-HA (c-Jun ORF in pCMV-HA vector) (UniProt P05412); experiment: co-immunoprecipitation, 293 cells cotransfected with myc-Tcl1 T38I and c-Jun-HA (FIG. 2E)

binding [1]: binds
Substance: Tcl1 T38I mutant, construct not stated (from UniProt P56279 1-114)

binding [5]: binds
Substance: 2×Myc-Tcl1 WT (from UniProt P56279 1-114)

binding [8]: binds
binding [9]: binds
binding [10]: binds
Substance: Omni-Tcl1 (full-length human TCL1 ORF in pcDNA4-HisMaxC) (from UniProt P56279 1-114)

Second part, the substance before the results:

Substance: endogenous Tcl1 of Daudi Burkitt lymphoma cells (from UniProt P56279 1-114)
binding [2]: binds
binding [3]: binds
binding [4]: binds

Substance: Tcl1 WT (pCMV5-TCL1 WT construct, full-length human TCL1 ORF) (from UniProt P56279 1-114)
binding [6]: binds

Substance: Tcl1 T38I (pCMV5-TCL1 T38I construct) (from UniProt P56279 1-114)
binding [7]: binds

Substance: 2×Myc-Tcl1 T38I (from UniProt P56279 1-114)
binding [11]: binds
binding [12]: binds
binding [13]: binds
